# Data taken from publication PMC8976408.
# Sequences of proteins named here, by UniProt entry; tags and fusion partners are left off. Residues count along the entry.
# UniProt Q07021, residues 74-282: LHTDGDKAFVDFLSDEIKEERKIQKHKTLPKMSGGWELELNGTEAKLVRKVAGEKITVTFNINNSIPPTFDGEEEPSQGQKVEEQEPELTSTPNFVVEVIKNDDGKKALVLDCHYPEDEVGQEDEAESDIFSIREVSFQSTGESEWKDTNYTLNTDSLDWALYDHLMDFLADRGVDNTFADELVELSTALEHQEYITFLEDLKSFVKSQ
# UniProt P35222: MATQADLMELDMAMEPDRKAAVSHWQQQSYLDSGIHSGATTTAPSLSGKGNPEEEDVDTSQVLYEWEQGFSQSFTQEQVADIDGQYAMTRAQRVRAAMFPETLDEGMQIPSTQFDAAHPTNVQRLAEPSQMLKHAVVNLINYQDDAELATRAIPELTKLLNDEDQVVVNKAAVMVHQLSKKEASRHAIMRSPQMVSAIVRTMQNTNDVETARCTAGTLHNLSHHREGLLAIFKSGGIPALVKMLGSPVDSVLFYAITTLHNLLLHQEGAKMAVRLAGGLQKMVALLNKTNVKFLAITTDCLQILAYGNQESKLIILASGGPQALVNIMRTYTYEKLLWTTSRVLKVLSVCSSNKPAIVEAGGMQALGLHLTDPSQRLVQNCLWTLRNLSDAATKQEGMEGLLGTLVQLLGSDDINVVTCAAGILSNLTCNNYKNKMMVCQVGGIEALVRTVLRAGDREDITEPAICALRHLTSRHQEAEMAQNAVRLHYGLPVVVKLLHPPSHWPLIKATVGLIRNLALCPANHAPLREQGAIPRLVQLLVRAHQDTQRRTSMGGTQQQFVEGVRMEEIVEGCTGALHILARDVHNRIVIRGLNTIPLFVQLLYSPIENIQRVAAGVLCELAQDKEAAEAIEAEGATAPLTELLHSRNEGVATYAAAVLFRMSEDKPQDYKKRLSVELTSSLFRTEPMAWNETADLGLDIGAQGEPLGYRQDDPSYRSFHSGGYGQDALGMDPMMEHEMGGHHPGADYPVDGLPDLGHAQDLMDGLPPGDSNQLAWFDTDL
# Results are given in words; binding and its absence hold for the method and conditions named. Binding seen in cells or lysates may run through a third protein. Some binding calls cover weakened binding; strength is not graded here.
# Target: complement C1q-binding protein (C1QBP) (human (endogenous in TU212 and LCC)) (UniProt Q07021)
# Assay: co-IP; endogenous proteins; lysates of ten million cells incubated with 1 μg anti-C1QBP antibody and anti-β-catenin antibody at 4 °C overnight, protein A beads, washed three times with PBS, western blot; cells without any intervention or after overexpressing circMTCL1
substance,measurement,value
β-catenin (from UniProt P35222 1-781),binding,binds
